These results are taken from PubChem BioAssay AID662 (National Center for Advancing Translational Sciences (NCATS), 2007).

Values joined by “and” are separate entries in the source; they are usually repeats but may differ in a detail not shown here. Identical values can stand only once. The list shows a part of the results. The main result of the screen is listed elsewhere. These columns were measured beside it and carry no call. The list favours compounds with an active or inconclusive main result. Words in brackets tell the shape of the fitted curve; partial curves, single points and poor fits give uncertain potencies.

A short description of this experiment: Cell signaling CRE-BLA (Fsk stim). The following applies: CHO CRE-bla reporter (cAMP response element driving beta-lactamase), forskolin EC10, beta-lactamase ratio; measured here: 460 nm blue channel. The gist of the method: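 CRE-bla CHO reporter cells treated with compound titration plus EC10 NKH 477 (water-soluble forskolin), incubated 3 h at 37 °C; CCF4 loading 2 h at room temperature, 460/530 nm emission ratio read, AC50 values derived for positive or negative modulators.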
As for `Cc1cc(C(=O)Nc2nnc(-c3ccccc3)s2)no1`, the concentration at half-maximal activity (AC50) was 0.0794 µM [falling, full curve, poor fit]. The value for `Cc1ccc(C(=O)NC2CC3CCCC(C2)N3C(=O)NC2CCCCC2)cc1` (stereo not drawn) was 3.16 µM [falling, full curve]; that for `Cc1noc(C)c1CSc1nc2ccccc2c(=O)n1-c1ccc(F)cc1F` was 10 µM [rising, single point]; that for `N#C/C=C\Oc1ccc(Cl)cc1N` was 15.8 µM [falling, partial curve]. The value for `CCOC(=O)c1cnc(-n2nc(C)cc2C)nc1Nc1ccc(N(C)C)cc1` was 10 µM [rising, single point]. The value for `O=C(CCCCC(=O)N1CCN(c2ccccc2)CC1)N1CCN(c2ccccc2)CC1` was 0.631 µM [falling, full curve]; that for `CC(NC(=O)c1cc2c(=O)n(C)c3ccccc3c2n1C)c1ccc2c(c1)OCCO2` (stereo not drawn) was 1 µM [rising, partial curve]; that for `COc1ccc2cnn(CCOc3ccccc3)c(=O)c2c1OC` was 12.6 µM [rising, partial curve]. As to `Cc1ccc(-c2c3c(=O)n(C)c(=O)n(C)c3cn2N2CCOCC2)cc1`, the half-maximal activity concentration (AC50) is 12.6 µM [rising, single point]. The value for `CC(C)C[C@H]1C(=O)N2CCC[C@@H]2[C@]2(O)O[C@](NC(=O)[C@H]3C=C4c5cccc6[nH]c(Br)c(c56)C[C@H]4N(C)C3)(C(C)C)C(=O)N12` was 10 µM [rising, single point] and 10 µM [rising, partial curve]; that for `CC(=O)c1cc2c(cc1NC(=O)CN1CCOCC1)OCO2` was 12.6 µM [rising, single point]; that for `CCN(CC(=O)NC(=O)NCc1ccco1)Cc1nc2ccccc2c(=O)[nH]1` was 0.0501 µM [falling, full curve]. The value for `CCN(CC)S(=O)(=O)c1cccc(-c2nnc(SCCOc3ccccc3C)o2)c1` was 20 µM [falling, single point]; that for `O=C(Nc1nc(-c2cc(Cl)sc2Cl)cs1)c1cccs1` was 3.16 µM [falling, full curve]; that for `CC(=O)c1cccc(N(CC(=O)NCC2CCCO2)C(=O)CCC(=O)Nc2cc(C)on2)c1` (stereo not drawn) was 0.01 µM [falling, full curve, poor fit]. The value for `Nn1c(SCC(=O)Nc2ccc3c(c2)OCO3)nnc1C1CCCCC1` was 3.16 µM [rising, single point]. `CCC(c1nnnn1C1CCCC1)N(Cc1cccs1)Cc1cc2cccc(C)c2[nH]c1=O` (stereo not drawn): the AC50 is 5.01 µM [rising, single point]. The value for `O=c1c2ccccc2nc(-c2ccccc2)n1CCCn1ccnc1` was 0.02 µM [falling, full curve, poor fit]. Take `O=C(NCC1COc2ccccc2O1)C1CCN(S(=O)(=O)c2cccc3nsnc23)CC1` (stereo not drawn): the half-maximal activity concentration (AC50) is 1.26 µM [falling, partial curve]. The value for `Cc1c(/C=N/n2cnnc2)c2ccccc2n1CCOc1ccccc1` was 3.16 µM [rising, full curve]; that for `CN(C)c1cc(-c2ccccc2)nc(N)n1` was 10 µM [rising, partial curve]; that for `O=C(COc1ccccc1Cl)OCC(=O)N1CCN(S(=O)(=O)c2ccccc2)CC1` was 0.00398 µM [falling, full curve, poor fit]. In the case of `Cc1ccc2nc(SCc3nnc(-c4cccs4)o3)[nH]c2c1`, the half-maximal activity concentration (AC50) is 12.6 µM [rising, partial curve]. The result for `CCOC(=O)C1CCCCN1C(=O)CCc1c(C)nc2ncnn2c1C` (stereo not drawn) reads 25.1 µM [rising, single point].

Turning to `CC(C)(C)OC(=O)NCCCCCc1nnc(SCC(=O)Nc2cccc(Cl)c2)o1`, the half-maximal activity concentration (AC50) was 3.16 µM [falling, partial curve]. The value for `c1ccc(Cn2nnc3c(N4CCOCC4)ncnc32)cc1` was 10 µM [rising, partial curve].

Turning to `Cc1cc(C(=O)CN2C(=O)C3CC=CCC3C2=O)c(C)n1-c1ccccc1` (stereo not drawn), the AC50 is 10 µM [rising, partial curve]. `COc1ccc(OC)c(NC(=O)Cn2cnc3c(cnn3-c3ccccc3)c2=O)c1`: the AC50 was 10 µM [rising, partial curve]. On to `COCCn1c(N)c(C(=O)NCc2cccs2)c2nc3ccccc3nc21`, for which the concentration at half-maximal activity (AC50) was 15.8 µM [rising, partial curve].

On to `COc1ccc2c(c1)c1nnc(SC)nc1n2C`, for which the AC50 was 3.16 µM [rising, full curve]. In the case of `CCCCOc1cc(C)nc(NCc2ccccc2)n1`, the AC50 is 10 µM [rising, single point]. The result for `CC(=Nc1ccc2c(c1)nc(CO)n2C)C1=C(O)CC(C)(C)CC1=O` reads 0.0398 µM [falling, partial curve]. As to `CCOc1cc(C(=O)N2CCCC2)cc(OCC)c1OCC`, the half-maximal activity concentration (AC50) was 0.00316 µM [falling, full curve, poor fit]. The value for `CCCCN=c1sc(C(=O)OC)cc(=O)n1CCCC` was 20 µM [falling, partial curve]; that for `Cc1cc(C)nc(SCc2nc3ccccc3n2C)n1` was 10 µM [rising, partial curve].

As for `COc1ccc(CCNc2oc(-c3ccccc3OC)nc2C#N)cc1`, the half-maximal activity concentration (AC50) is 12.6 µM [rising, partial curve].

Consider `Cc1cc(C)nc(-n2nc(C)cc2NC(=O)COC(=O)CCC(=O)c2cccs2)n1`, for which the half-maximal activity concentration (AC50) is 10 µM [rising, partial curve]. The value for `COCCn1c(=O)c(-c2ccc(OC)cc2)nc2cnc(Oc3ccccc3)nc21` was 12.6 µM [rising, partial curve]; that for `CC1Cc2ccccc2N1C(=O)CSc1nnc2sc3ccccc3n12` (stereo not drawn) was 20 µM [rising, single point]; that for `O=C(NCCCN1CCCC1=O)c1nnc(Cc2c(F)cccc2Cl)o1` was 10 µM [falling, partial curve, poor fit]. The value for `Cc1ccc(N2CCN(CCC(=O)O)CC2)cc1` was 5.01 µM [rising, partial curve]; that for `Cc1cc(-c2ccccc2)c(C#N)c(N)n1` was 10 µM [rising, partial curve]; that for `O=c1c(-c2ccc(F)cc2)nc2cncnc2n1Cc1ccc(F)cc1` was 10 µM [rising, partial curve].
